Data taken from PubChem BioAssay AID504318, deposited by NCATS (2011).

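HB3 malaria parasites grown inside red blood cells for 72 hours, with parasite DNA measured by SYBR Green fluorescence to track growth inhibition. The number is the fitted concentration giving half-maximal inhibition (AC50, nM); a lower value means a more potent compound. Calls follow curve class and fitted AC50 scoring: scores of 40–100 are active, 1–39 inconclusive, and 0 inactive; these rows hold weak, partial or single-point curves.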

Values are in nM. Every entry below has the call inconclusive. These entries are mostly ones the record files as inconclusive; other results of the assay are not listed here. A potency from a partial, single-point or poor curve is only a rough figure. Activity scores are not listed here. An entry listed twice with the same setting is a separate test.

| structure | fitted potency (nM) | remark |
|---|---|---|
| `COc1ccc(O[C@H]2C=C[C@@H](c3ccccc3)O[C@H]2COC(=O)CCC(C)=NO[C@H](C)CN2CCCc3nc(C)c(C)cc32)cc1` | 2133 | inhibitor, single point |
| `COC(=O)C1=C(C(=O)OC)[C@@H]2N(C)c3ccc(OC)cc3[C@@]23C[C@@H](C(=O)OC)N(C(=O)c2ccco2)C3=N1` | 1901 | inhibitor, partial curve, poor fit |
| `COc1cc2c(cc1OC)[C@@H]1O[C@](CCCCN3C(=O)c4ccccc4C3=O)(C2)OC2=C1C(=O)CCC2` | 2133 | inhibitor, single point |
| `CCOC(=O)OC[C@H]1O[C@H](C#Cc2ccccc2)C=C[C@H]1OC(=O)OCC` | 3981 | inhibitor, single point |
| `CCOC(=O)CCCNC(=O)N1CCc2nc(COc3ccccc3)c3c(c2C1)CO[C@@H](C)C3` | 1694 | inhibitor, partial curve |
| `C#Cc1ccccc1C[C@]1(C(=O)OC)C=C[C@H](C)[C@@H](c2ccccc2Br)N1C(=O)C(F)(F)F` | 4256 | inhibitor, single point |
| `C[C@@H]1CC[C@H]2C(=O)N(Cc3ccc(Cl)cc3)C[C@@H](O)CN2[C@H]1c1cccc(Br)c1` | 1510 | inhibitor, single point |
| `CCCNC(=O)N1C2=NC(C(=O)OC)=C(C(=O)OC)[C@@H]3N(C)c4ccccc4[C@]23C[C@H]1C(=O)OC` | 4467 | inhibitor, partial curve, poor fit |
| `COC(=O)[C@@]1(C=C2c3ccc(F)cc3[C@@H](OC)[C@@H]2C)[C@@H]2CC=C[C@@H]21` | 2393 | inhibitor, single point |
| `C[C@@H]1CC[C@H]2C(=O)N(Cc3ccc(Cl)cc3)C[C@H](O)CN2[C@@H]1c1ccc(Br)cc1` | 1901 | inhibitor, partial curve |
| `CCOC(=O)CCCNC(=O)N1CCc2nc(COc3ccccc3)c3c(c2C1)CO[C@@H](C)C3` | 1901 | inhibitor, single point |
| `COc1ccc([C@]23Cc4cc(C#N)ccc4[C@H](O2)c2c(cc(-c4ccccc4)oc2=O)O3)cc1` | 1901 | inhibitor, partial curve |
| `CC=CC1=Cc2ccccc2C(C(C(=O)OC)C(=O)OC)N1C(=O)OC` (centres unmarked) | 1510 | inhibitor, partial curve |
| `CC(=O)OC[C@H]1O[C@H](C#Cc2ccc(C)cc2C)C=C[C@H]1OC(C)=O` | 4256 | inhibitor, single point |
| `COC1=C(C(=O)c2ccccc2)C(=O)[C@@]2(CC=C(C)C)C[C@H](C(=O)OCC(F)(F)F)C(C)(C)[C@@]1(CC=C(C)C)C2=O` | 3013 | inhibitor, single point |
| `CCCCCC(=O)c1cc(CC(C(=O)OC)C(=O)OC)cc2cc(OC)c(OC)cc12` | 2393 | inhibitor, single point |

For reference, 2 entries once more:

| structure | fitted potency (nM) | remark |
|---|---|---|
| `CCOC(=O)CCCNC(=O)N1CCc2nc(COc3ccccc3)c3c(c2C1)CO[C@@H](C)C3` | 1694 | inhibitor, partial curve |
| `C[C@@H]1CC[C@H]2C(=O)N(Cc3ccc(Cl)cc3)C[C@H](O)CN2[C@@H]1c1ccc(Br)cc1` | 1901 | inhibitor, partial curve |